Some results were stated once for a whole list of compounds, not compound by compound. At least one structure is not confirmed: it was looked up by name or label, or the drawing left a doubt.
Assays:
Pythium ultimum [1] = assay: Pythium ultimum / cotton pouch test; format: in vivo, P. ultimum; settings: 20 ppm; cotton seeds cv. Sure Grow 747 in pouch; compared to untreated control
[2] = system: Monographella nivalis (Microdochium nivale); assay: Monographella nivalis / liquid culture (foot rot cereals); format: cell-based; settings: 200 ppm, PDB, 4-5 days after application
[3] = system: Mycosphaerella arachidis (Cercospora arachidicola); assay: Mycosphaerella arachidis / liquid culture (early leaf spot); format: cell-based; settings: 200 ppm, PDB, 4-5 days after application
Gaumannomyces graminis = Gaumannomyces graminis / wheat pouch test (root browning); format: in vivo, G. graminis; settings: 20 ppm; wheat seeds cv. Arina in pouch, 14 days; compared to untreated control
Pythium ultimum [4] = assay: Pythium ultimum / liquid culture (seedling damping off); format: cell-based; settings: 200 ppm, potato dextrose broth, 2-3 days after application
[5] = system: Glomerella lagenarium (Colletotrichum lagenarium); assay: Glomerella lagenarium / liquid culture (anthracnose); format: cell-based; settings: 200 ppm, PDB, 3-4 days after application

CNC(=S)NN=Cc1cc(Cl)cc2c1B(O)OC2 (single isomer, unassigned) [Compound 224]
at least 80%: disease control (emergence and degree of disease on the roots) (Pythium ultimum [1]) | disease control (inhibition of growth, photometric) [2] | disease control (inhibition of growth, photometric) [3] | disease control (degree of root browning) (Gaumannomyces graminis) | disease control (inhibition of growth, photometric) (Pythium ultimum [4]) | disease control (inhibition of growth, photometric) [5]

NC(=S)NN=Cc1cc(Cl)cc2c1B(O)OC2 (single isomer, unassigned) [Compound 225]
at least 80%: disease control (emergence and degree of disease on the roots) (Pythium ultimum [1]) | disease control (inhibition of growth, photometric) [2] | disease control (inhibition of growth, photometric) [3] | disease control (inhibition of growth, photometric) (Pythium ultimum [4]) | disease control (inhibition of growth, photometric) [5]
